Peptide text beside a SMILES is read from it.
Assay: Taste sensory evaluation of the substances by panelists (Test Example 2)
Set-up: key: x: Taste bitter; ∘: Do not taste bitter
Details: panelists 3 males and 3 females, blinded

Question: With `CC[C@H](C)[C@H](NC(=O)[C@H](C)N)C(=O)O` [Alanyl-Isoleucine, alanyl-isoleucine] (H-Ala-Ile-OH) as the molecule, how does the “Sensory Awareness” value read?
Answer: Its value is “∘”.

Question: Which “Sensory Awareness” value does the source give for `CC(C)C[C@H](NC(=O)[C@H](C)N)C(=O)O` [Alanyl-Leucine, alanyl-leucine] (H-Ala-Leu-OH) here?
Answer: The value was “∘”.

Question: For `CC(C)[C@H](NC(=O)[C@H](C)N)C(=O)O` [Alanyl-Valine, alanyl-valine] (H-Ala-Val-OH), which “Sensory Awareness” value is on record?
Answer: Its value is “∘”.

Question: For `CC[C@H](C)[C@H](N)C(=O)O` [Isoleucine, isoleucine, reference compound], which “Sensory Awareness” value is on record?
Answer: Its value is “x”.

Question: With `CC(C)[C@H](N)C(=O)O` [Valine, valine, reference compound] as the molecule, how does the “Sensory Awareness” value read?
Answer: Its value is “x”.
